Some entries share one result that the patent states for a list of compounds.
Legend:
MPanc96-luc cells [1] = type: in vivo, athymic nude mice; settings: S-NACH 20 mg/kg, tinzaparin 5 mg/kg s.c. daily; 28 days; vs untreated controls
Description: MPanc96-luc cells were harvested as described above and were orthotopically implanted (2×10^5 cells in 50 μl PBS per mouse) in the pancreas of anesthetized athymic nude mice. Just before treatment initiation, animals (n=10 per group) were randomized by tumor mass detected by an in vivo imaging system (IVIS, described below). Heparin derivatives S-NACH at 20 mg/kg and tinzaparin at 5 mg/kg were administered subcutaneously daily. Gemcitabine at 100 mg/kg was injected intraperitoneally twice a week alone or in combination with either S-NACH or tinzaparin. All mice used for treatment response evaluations were euthanized after 28 days. See Table 2 for the protocol of the study. Imaging was performed once per week to monitor tumor growth. […] Photographic and luminescence images were taken at constant exposure time. Xenogen IVIS® Living Image software version 3.2 was used to quantify non-saturated bioluminescence in regions of interest. […] Bioluminescence was quantified as photons/second for each region of interest. In vivo tumor kinetic growth and metastasis were monitored by signal intensity. […] All specimens were analyzed by histology for routine analysis. […] Sections were evaluated for various pathologic parameters using a light microscope (Leica, Buffalo Grove, Ill.).

MPanc96-luc cells [2] = assay: CAM cancer implant model, MPanc96; type: in vivo, chick embryo; settings: 1 μg/CAM
Description: The CAM cancer implant model was used in conjunction with the present invention to study the effect of heparin derivatives (S-NACH versus tinzaparin) along with gemcitabine at 1.0 μg/CAM on tumor angiogenesis and tumor growth. MPanc96-luc cells in exponential growth phase were harvested as described above. One×10^6 cells in 30 μl of medium were mixed with an equal volume of Matrigel and implanted in the chick Chorioallantoic membrane (CAM) model of 7-day old chick eggs. The effect of these treatments was determined after 8 days of implantation. Results are presented as a mean tumor weight (g) per treatment group and tumor hemoglobin (mg/dl)±SEM, n=10 per group. For the Matrigel portions of the models, tumor angiogenesis is evaluated with tumor weight analysis and Drabkin's Assay for hemoglobin concentration (angiogenesis index). PBS was used as a negative control while breast cancer cells were used as a positive control and to initiate tumorigenesis. The tumor cells were MCF-7/DXR (human breast adenocarcinoma), and 1-2 million cells per CAM were used. […] By re-weighing the tubes with the tumor inside, the weight of the tumor itself could be recorded. […] Specimens were centrifuged, and the hemoglobin content was measured using Drabkin's reagent (Sigma, St Louis, Mo.), run in duplicate using the supernatant. […]

Q: Which results are given for tinzaparin?
A: inhibition of tumor mass (MPanc96-luc cells [1]): 25-30%; inhibition of tumor growth and tumor angiogenesis (MPanc96-luc cells [2]): 60-80%

Reference: patent US9572831B2, “Composition and method for sulfated non-anticoagulant low molecular weight heparins in cancer and tumor metastasis” (priority 2013, dated 2017)
